# In PubChem BioAssay (EPA / NIEHS):
# Amino acid sequences for entries named in this document (tags omitted). A change or cut given only in a name is not applied to a line headed by its entry.
# UniProt P28827, whole entry, looked up: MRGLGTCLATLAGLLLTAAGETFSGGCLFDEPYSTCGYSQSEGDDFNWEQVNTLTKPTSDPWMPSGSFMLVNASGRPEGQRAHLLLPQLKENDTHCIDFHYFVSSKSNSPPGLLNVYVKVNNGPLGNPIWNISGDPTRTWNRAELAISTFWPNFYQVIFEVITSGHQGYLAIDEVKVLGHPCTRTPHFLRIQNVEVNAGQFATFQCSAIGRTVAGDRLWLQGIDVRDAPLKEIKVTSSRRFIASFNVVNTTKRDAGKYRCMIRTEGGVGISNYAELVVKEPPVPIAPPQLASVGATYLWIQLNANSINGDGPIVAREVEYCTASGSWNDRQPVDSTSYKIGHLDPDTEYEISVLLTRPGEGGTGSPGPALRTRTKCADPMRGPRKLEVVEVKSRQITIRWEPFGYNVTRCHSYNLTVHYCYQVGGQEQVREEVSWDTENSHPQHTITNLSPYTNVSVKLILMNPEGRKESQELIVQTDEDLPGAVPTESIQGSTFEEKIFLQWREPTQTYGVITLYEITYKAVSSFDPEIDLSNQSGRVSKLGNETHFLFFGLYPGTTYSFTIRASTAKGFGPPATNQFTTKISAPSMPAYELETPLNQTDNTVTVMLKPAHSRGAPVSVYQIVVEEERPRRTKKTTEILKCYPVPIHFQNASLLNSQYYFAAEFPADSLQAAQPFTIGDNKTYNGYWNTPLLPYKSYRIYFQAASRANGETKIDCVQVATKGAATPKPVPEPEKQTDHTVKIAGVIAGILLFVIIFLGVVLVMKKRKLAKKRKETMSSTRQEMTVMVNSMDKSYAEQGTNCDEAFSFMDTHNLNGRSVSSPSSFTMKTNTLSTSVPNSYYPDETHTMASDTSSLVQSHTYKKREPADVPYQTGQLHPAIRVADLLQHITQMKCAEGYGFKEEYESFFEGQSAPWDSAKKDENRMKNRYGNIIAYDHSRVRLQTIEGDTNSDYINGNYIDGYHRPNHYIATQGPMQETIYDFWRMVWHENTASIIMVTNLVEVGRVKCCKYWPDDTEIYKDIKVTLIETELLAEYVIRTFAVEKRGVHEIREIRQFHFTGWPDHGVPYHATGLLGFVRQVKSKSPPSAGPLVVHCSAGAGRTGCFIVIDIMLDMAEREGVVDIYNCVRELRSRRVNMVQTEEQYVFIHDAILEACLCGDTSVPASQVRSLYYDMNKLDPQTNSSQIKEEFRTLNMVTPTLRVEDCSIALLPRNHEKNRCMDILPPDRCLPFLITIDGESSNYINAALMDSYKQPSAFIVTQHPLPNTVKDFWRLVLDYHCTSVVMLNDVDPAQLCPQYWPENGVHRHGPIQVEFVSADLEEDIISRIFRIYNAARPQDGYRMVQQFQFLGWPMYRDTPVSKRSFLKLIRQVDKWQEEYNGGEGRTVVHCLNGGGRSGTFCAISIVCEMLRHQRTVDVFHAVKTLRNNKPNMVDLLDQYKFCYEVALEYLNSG
# UniProt Q08E50: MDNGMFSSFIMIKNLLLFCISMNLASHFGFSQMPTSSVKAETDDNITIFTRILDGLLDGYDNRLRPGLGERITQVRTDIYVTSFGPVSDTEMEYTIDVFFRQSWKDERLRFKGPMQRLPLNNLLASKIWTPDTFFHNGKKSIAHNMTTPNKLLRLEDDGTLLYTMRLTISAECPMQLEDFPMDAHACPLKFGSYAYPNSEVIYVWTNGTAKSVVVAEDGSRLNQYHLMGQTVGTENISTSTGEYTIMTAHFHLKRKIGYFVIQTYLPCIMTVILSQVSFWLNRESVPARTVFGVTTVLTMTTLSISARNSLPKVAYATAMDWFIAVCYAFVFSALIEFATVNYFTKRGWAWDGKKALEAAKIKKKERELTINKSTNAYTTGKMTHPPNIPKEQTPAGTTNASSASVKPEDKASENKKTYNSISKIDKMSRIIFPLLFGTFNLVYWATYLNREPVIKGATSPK
# UniProt P22199: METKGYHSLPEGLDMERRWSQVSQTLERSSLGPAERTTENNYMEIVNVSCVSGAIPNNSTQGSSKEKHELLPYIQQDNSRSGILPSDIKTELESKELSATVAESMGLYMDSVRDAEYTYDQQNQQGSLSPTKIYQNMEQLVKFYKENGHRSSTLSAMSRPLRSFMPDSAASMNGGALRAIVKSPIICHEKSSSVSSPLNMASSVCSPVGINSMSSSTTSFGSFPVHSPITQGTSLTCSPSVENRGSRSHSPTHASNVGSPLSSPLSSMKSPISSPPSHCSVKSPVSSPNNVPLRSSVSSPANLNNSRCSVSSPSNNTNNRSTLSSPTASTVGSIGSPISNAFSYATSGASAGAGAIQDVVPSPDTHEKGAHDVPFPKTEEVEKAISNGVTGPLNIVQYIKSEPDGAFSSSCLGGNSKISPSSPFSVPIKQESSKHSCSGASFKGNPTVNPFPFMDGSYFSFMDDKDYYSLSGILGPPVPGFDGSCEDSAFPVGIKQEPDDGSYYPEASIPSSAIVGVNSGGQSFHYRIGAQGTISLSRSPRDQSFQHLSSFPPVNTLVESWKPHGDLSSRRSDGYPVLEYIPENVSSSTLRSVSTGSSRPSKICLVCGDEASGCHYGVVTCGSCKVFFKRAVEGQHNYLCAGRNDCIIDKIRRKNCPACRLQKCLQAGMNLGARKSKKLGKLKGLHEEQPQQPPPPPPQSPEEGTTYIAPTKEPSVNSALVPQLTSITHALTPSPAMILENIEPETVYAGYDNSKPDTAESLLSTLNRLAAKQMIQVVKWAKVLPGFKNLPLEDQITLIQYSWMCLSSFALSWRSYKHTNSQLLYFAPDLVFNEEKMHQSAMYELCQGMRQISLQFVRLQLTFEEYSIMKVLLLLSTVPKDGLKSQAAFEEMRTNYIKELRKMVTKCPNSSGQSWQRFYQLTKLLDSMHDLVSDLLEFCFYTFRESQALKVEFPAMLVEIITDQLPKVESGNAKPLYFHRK
# UniProt P14780: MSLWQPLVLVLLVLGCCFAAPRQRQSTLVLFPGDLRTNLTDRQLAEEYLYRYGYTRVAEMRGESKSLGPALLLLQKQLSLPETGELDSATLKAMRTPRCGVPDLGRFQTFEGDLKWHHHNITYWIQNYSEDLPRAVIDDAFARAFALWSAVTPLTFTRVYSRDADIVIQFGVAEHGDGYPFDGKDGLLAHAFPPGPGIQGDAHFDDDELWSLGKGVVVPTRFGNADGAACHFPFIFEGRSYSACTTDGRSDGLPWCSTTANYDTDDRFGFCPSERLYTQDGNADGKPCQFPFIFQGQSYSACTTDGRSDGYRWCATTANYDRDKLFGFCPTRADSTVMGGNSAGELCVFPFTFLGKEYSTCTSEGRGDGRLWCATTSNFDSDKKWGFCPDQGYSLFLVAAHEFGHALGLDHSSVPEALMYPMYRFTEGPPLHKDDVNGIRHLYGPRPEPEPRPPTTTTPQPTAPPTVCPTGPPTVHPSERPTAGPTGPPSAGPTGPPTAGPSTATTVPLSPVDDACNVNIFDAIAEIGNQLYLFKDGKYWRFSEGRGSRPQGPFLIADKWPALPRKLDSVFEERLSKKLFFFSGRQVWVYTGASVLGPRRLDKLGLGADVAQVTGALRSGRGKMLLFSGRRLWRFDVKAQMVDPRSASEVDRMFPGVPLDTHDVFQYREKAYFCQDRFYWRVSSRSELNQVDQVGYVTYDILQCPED
# UniProt P21731: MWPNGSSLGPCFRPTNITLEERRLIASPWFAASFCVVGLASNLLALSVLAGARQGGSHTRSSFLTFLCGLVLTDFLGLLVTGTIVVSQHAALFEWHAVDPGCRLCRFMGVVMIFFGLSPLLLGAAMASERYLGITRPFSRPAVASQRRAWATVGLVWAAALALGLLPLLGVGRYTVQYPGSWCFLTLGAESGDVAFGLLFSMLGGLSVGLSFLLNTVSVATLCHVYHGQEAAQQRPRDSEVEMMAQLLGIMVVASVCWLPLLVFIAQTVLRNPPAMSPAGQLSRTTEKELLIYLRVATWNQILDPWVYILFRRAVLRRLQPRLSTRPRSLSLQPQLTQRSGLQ
# UniProt Q05209: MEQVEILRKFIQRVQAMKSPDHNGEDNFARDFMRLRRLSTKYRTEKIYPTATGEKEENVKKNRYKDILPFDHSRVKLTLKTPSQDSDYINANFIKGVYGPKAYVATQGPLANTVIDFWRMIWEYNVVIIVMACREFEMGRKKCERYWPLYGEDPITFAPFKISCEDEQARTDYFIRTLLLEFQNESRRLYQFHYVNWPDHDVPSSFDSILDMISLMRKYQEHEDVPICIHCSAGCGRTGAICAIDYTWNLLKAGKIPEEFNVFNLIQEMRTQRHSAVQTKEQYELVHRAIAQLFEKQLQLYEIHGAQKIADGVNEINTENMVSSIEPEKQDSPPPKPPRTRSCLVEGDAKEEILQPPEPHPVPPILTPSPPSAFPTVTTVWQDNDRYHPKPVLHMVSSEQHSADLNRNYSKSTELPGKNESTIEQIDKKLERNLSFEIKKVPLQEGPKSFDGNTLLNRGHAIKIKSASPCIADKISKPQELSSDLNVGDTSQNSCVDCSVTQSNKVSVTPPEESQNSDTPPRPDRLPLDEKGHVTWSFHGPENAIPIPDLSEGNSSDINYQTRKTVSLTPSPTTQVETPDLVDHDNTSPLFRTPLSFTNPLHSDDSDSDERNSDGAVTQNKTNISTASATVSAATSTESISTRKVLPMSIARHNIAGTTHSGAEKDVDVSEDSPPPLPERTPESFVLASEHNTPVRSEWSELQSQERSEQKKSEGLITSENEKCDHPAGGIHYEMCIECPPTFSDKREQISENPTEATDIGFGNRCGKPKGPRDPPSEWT
# UniProt Q96EB6: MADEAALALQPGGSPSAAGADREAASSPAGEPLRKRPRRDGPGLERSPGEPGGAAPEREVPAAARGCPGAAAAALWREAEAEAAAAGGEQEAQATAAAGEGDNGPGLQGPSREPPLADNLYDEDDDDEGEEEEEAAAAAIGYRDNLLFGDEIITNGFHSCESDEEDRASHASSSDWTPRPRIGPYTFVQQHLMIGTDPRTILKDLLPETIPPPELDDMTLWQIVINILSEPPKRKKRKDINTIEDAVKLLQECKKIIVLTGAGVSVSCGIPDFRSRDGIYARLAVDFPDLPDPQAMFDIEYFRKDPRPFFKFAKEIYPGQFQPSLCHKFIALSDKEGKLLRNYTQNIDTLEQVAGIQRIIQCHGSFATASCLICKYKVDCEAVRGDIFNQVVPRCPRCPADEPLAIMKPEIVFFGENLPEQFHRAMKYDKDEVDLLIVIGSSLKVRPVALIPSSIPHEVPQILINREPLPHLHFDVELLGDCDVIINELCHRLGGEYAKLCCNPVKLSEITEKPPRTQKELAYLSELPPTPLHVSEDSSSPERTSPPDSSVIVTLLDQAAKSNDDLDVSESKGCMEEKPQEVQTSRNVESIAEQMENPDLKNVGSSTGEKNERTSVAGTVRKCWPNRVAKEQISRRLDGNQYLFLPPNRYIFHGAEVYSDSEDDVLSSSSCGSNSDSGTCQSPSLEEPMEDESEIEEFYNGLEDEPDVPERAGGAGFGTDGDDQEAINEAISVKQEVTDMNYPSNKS
# UniProt P04798: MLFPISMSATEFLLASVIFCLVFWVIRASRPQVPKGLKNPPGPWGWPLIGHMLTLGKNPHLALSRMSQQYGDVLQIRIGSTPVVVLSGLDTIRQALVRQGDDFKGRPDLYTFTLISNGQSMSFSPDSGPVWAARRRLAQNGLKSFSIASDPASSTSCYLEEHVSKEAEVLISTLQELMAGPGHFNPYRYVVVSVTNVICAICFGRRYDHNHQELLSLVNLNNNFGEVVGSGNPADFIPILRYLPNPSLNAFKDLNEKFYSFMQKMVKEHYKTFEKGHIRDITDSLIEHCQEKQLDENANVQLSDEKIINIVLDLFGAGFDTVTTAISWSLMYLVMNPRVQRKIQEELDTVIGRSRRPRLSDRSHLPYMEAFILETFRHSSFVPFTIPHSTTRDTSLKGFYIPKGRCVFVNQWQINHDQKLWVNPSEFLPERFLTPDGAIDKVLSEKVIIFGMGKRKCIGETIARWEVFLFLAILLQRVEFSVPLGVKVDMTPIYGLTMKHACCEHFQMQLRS
# UniProt Q9NTG7: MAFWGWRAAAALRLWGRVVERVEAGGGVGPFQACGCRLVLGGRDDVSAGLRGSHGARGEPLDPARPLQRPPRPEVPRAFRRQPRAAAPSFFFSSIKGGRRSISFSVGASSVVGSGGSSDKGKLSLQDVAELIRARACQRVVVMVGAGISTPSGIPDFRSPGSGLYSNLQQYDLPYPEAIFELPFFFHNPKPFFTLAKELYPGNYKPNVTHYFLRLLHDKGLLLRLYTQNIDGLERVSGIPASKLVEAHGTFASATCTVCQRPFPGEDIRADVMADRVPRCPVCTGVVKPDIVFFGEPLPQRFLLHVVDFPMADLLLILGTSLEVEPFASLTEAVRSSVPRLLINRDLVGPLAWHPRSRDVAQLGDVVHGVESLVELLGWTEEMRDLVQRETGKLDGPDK
# UniProt P30536, whole entry, looked up: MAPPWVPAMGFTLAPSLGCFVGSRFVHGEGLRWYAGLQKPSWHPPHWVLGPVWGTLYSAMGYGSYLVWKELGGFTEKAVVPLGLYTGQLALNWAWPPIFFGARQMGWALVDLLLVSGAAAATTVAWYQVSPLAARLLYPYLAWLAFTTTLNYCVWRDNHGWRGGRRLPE
# Inconclusive means that the source gave no clear call. Such entries were picked first, then a sample of the others. For some of these results: A potency beside an inconclusive call is a rough fit, not a confirmed value. The source made the active and inactive calls. How the source made its calls: active means hit-call score of the fitted dose curve at least 0.9, where 1 is the maximum; inconclusive means response in the unintended direction; inactive means score below 0.9.
# Key:
# [1] = target: human Protein Tyrosine Phosphatase Receptor Type F (PTPRF), PTPRF (gene 5792) (UniProt P10586); assay: NVS_ENZ_hPTPRF: NovaScreen (NVS) Enzymatic Assay for human Protein Tyrosine Phosphatase Receptor Type F (PTPRF) (AID 2283213)
# How it was run: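 Cell-free fluorescence enzyme assay with recombinant protein and substrate; product separated by electrophoretic mobility shift. Read 1 h after dosing, single 25 uM duplicate screen, then concentration-response up to 50 uM; loss of signal vs DMSO.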
# [2] = target: human Protein Tyrosine Phosphatase Receptor Type M (PTPRM), PTPRM (gene 5797) (UniProt P28827); assay: NVS_ENZ_hPTPRM: NovaScreen (NVS) Enzymatic Assay for human Protein Tyrosine Phosphatase Receptor Type M (PTPRM) (AID 2283215)
# How it was run: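 Read-out is fluorescence after electrophoretic separation of substrate and product, taken 1.33 h post-dosing with recombinant enzyme. Compounds screened at 25 uM in duplicate, then concentration series for actives; activity as signal loss relative to DMSO.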
# [3] = target: rat Opioid Receptor, Non-selective Sodium (Na+) Binding, Oprm1 (gene 25601) (UniProt P33535); assay: NVS_GPCR_rOpiate_NonSelectiveNa: NovaScreen (NVS) G Protein-Coupled Receptor Assay for rat Opioid Receptor, Non-selective Sodium (Na+) Binding (AID 2283311)
# How it was run: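 Filtration radioligand binding on rat forebrain membrane preparations, read 1.5 h after dosing. Single-concentration 25 µM primary screen in duplicate, followed by singleton concentration series to 50 µM max for actives; DMSO baseline.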
# [4] = target: bovine Gamma-Aminobutyric Acid Type A Receptor BDZ, alpha 5 site (GABARa5), GABRA5 (gene 523515) (UniProt Q08E50); assay: NVS_LGIC_bGABARa5: NovaScreen (NVS) Ligand-Gated Ion Channel Assay for bovine Gamma-Aminobutyric Acid Type A Receptor BDZ, alpha 5 site (GABARa5) (AID 2283323)
# How it was run: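 Tested first in duplicate at a single 25 uM, with hits re-run in concentration series to a 50 uM maximum. Bovine hippocampal membranes; specific radioligand displacement measured by filter scintillation counting 1 hr post-dose.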
# [5] = target: rat Mineralocorticoid Receptor (MR), Nr3c2 (gene 25672) (UniProt P22199); assay: NVS_NR_rMR: NovaScreen (NVS) Nuclear Receptor Binding Assay for rat Mineralocorticoid Receptor (MR) (AID 2283355)
# How it was run: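 Radioligand displacement, scintillation readout; tissue source adrenalectomized rat brain supernatant. Read 24 h post-dose. Screened in duplicate at 25 uM, DMSO negative control, controls on every plate; actives re-run in concentration series.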
# [6] = target: human Matrix Metalloproteinase-9 (MMP9), MMP9 (gene 4318) (UniProt P14780); assay: NVS_ENZ_hMMP9: NovaScreen (NVS) Enzymatic Assay for human Matrix Metalloproteinase-9 (MMP9) (AID 2283190);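 further: cell-free recombinant MMP9 protease activity read by fluorescent substrate signal; active means inhibition seen as loss of fluorescence signal versus DMSO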
# How it was run: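 Extracted enzyme, fluorescent substrate, 1 h post-dose read. Single conc 25 uM in duplicate, then concentration series for actives. Activity = signal loss relative to DMSO negative control.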
# [7] = target: human Thromboxane A2 Receptor (TXA2), TBXA2R (gene 6915) (UniProt P21731); assay: NVS_GPCR_hTXA2: NovaScreen (NVS) G Protein-Coupled Receptor Assay for human Thromboxane A2 Receptor (TXA2) (AID 2283282);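 further: actives reduce bound radioligand signal relative to DMSO baseline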
# How it was run: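 Cell-free radioligand binding with human platelet-derived receptor; 1 h after dosing, filter-based scintillation counting, loss of signal vs DMSO. Primary screen in duplicate at 25 uM.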
# [8] = target: Tyrosine-protein phosphatase non-receptor type 12 (Homo sapiens) (UniProt Q05209); assay: NVS_ENZ_hPTPN12: NovaScreen (NVS) Enzymatic Assay for human Protein Tyrosine Phosphatase Non-receptor Type 12 (PTPN12) (AID 2283204)
# How it was run: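 Single-concentration duplicates (25 uM) preceded singleton concentration-response up to 50 uM for chemicals passing threshold. Cell-free recombinant PTPN12 activity was read 1.33 h after dosing via fluorescence after mobility-shift separation; loss of signal versus DMSO.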
# [9] = target: human Sirtuin 1 (SIRT1), SIRT1 (gene 23411) (UniProt Q96EB6); assay: NVS_ENZ_hSIRT1: NovaScreen (NVS) Enzymatic Assay for human Sirtuin 1 (SIRT1) (AID 2283219)
# How it was run: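 Cell-free recombinant SIRT1 with a fluorescent substrate; substrate and product separated by electrophoretic mobility shift and read by fluorescence intensity, 1 h after dosing. Primary screen at 25 uM in duplicate; hits re-run in concentration-response up to 50 uM, relative to DMSO.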
# [10] = Tanguay_ZF_120hpf_PE_legacy: (Legacy) Oregon State University Tanguay Lab 120 Hour Post-fertilization zebrafish Assay for Pericardial Edema (AID 2283640);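 on AC50: potency for increased incidence of pericardial edema versus DMSO baseline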
# How it was run: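 Tropical 5D wild-type zebrafish embryos were statically exposed until 120 hpf at 28C, with 0.64% DMSO final. Pericardial edema was scored by brightfield as present or absent; endpoints were not scored in dead embryos.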
# [11] = target: human CYP1A1, CYP1A1 (gene 1543) (UniProt P04798); assay: NVS_ADME_hCYP1A1: NovaScreen (NVS) CYP450-related Enzyme Activity (ADME) Assay for human CYP1A1 (AID 2283100)
# How it was run: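 Recombinant CYP1A1 with a fluorogenic substrate, cell-free, read 1 h after dosing; acetonitrile as negative control. Single-concentration screen at 10 uM in duplicate, then concentration-response up to 20 uM for chemicals meeting ~30% inhibition threshold.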
# [12] = target: human Sirtuin 3 (SIRT3), SIRT3 (gene 23410) (UniProt Q9NTG7); assay: NVS_ENZ_hSIRT3: NovaScreen (NVS) Enzymatic Assay for human Sirtuin 3 (SIRT3) (AID 2283222)
# How it was run: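 Cell-free enzyme assay with recombinant protein and fluorescent substrate, product separated by electrophoretic mobility shift; read 1 hour after dosing. Screened in duplicate at 25 uM, then singleton concentration-response up to 50 uM; loss of signal versus DMSO.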
# [13] = IUF_NPC5_oligodendrocyte_differentiation_120hr: Leibniz Research Institute for Environmental Medicine (IUF) 120-hour Oligodendrocyte Differentiation Assay (NPC5) (AID 2284304);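 further: primary human fetal neural progenitor spheres plated to migrate and differentiate; share of O4-positive cells among Hoechst nuclei found by CNN image analysis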
# How it was run: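 Human fetal neural progenitor spheres (0.3 mm) plated on poly-D-lysine/laminin in N2 differentiation medium and exposed for 120 h at 7 concentrations, with half-medium renewal at day 3. O4-positive cells identified by CNN, expressed as percent of Hoechst nuclei.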
# [14] = target: Retinoic acid receptor alpha (Homo sapiens) (UniProt P10276); assay: NVS_NR_hRARa_Agonist: NovaScreen (NVS) Nuclear Receptor Binding Assay for human Retinoic Acid Alpha Receptor Agonism (RAR) (AID 2283361)
# How it was run: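 TR-FRET signal, 2 h post-dosing; cell-free extracted protein; DMSO = baseline, positive fitting direction; 25 uM single-point duplicate, then concentration series for actives.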
# [15] = CCTE_Deisenroth_AIME_96WELL_CTox_Active: Cytotoxicity Assessment (CTOX) in CCTE's 96-well Estrogen Receptor Transactivation Assay with AIME metabolic competence (metabolism positive), Deisenroth Lab (AID 2284028)
# How it was run: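 Cytotoxicity in VM7Luc4E2 breast cells after 24 h exposure to medium from a 2 h metabolic pre-incubation with induced rat hepatic S9 in alginate microspheres; fluorescent live-cell protease readout, 10-point series 0.002–200 uM, n=4.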
# [16] = CCTE_Deisenroth_AIME_96WELL_CTox_Inactive: Cytotoxicity Assessment (CTOX) in CCTE's 96-well Estrogen Receptor Transactivation Assay without AIME metabolic competence (metabolism negative), Deisenroth Lab (AID 2284029)
# How it was run: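 Cytotoxicity in VM7Luc4E2 breast cells was scored as loss of fluorescent signal from a live-cell protease substrate 24 h after exposure, using bidirectional curve fitting. Test media came from a 2 h metabolism-negative pre-incubation (alginate-water, no hepatic S9) of compounds at 0.002-200 uM, with at least four replicates.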
# [17] = target: guinea pig Leukotriene D4 Receptor (LTD4), CYSLTR1 (gene 100135514) (UniProt Q2NNR5); assay: NVS_GPCR_gLTD4: NovaScreen (NVS) G Protein-Coupled Receptor Assay for guinea pig Leukotriene D4 Receptor (LTD4) (AID 2283248)
# How it was run: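 Guinea pig lung membrane preparation; bound radioligand measured by filter scintillation after 1 h, loss of signal versus DMSO marking displacement. Compounds tested at 25 uM in duplicate, hits retested to max 50 uM.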
# [18] = test system: bovine Angiotensin II Receptor Type 2 (AT2), gene 407157; assay: NVS_GPCR_bAT2: NovaScreen (NVS) G Protein-Coupled Receptor Assay for bovine Angiotensin II Receptor Type 2 (AT2) (AID 2283240)
# How it was run: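 Radioligand displacement on bovine cerebellar membranes, 1 hour incubation, filter-based scintillation counting; loss of signal vs DMSO. Duplicate single-point screen at 25 uM, then concentration-response to 50 uM maximum.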
# [19] = target: Peroxisome proliferator-activated receptor gamma (Homo sapiens) (UniProt P37231); assay: OT_PPARg_PPARgSRC1_1440: Odyssey Thera (OT) 24-hour Protein-Complementation Assay for Peroxisome Proliferator-activated Receptor Gamma/ SRC-1 Co-activator (AID 2283388)
# How it was run: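 HEK293T transiently transfected with PPARg/SRC-1 split-Venus YFP fusions 48 h before dosing, then treated 24 h at 37C. Fixed cells imaged; nuclear/cytoplasmic 488 nm fluorescence ratio, gain of signal versus DMSO.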
# [20] = target: human Peripheral-type Benzodiazepine Receptor (PBR), TSPO (gene 706) (UniProt P30536); assay: NVS_MP_hPBR: NovaScreen (NVS) Membrane Protein Assay for human Peripheral-type Benzodiazepine Receptor (PBR) (AID 2283331);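 further: hits reduce radioligand binding relative to DMSO baseline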
# How it was run: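 Cell-free radioligand displacement, human colonic membranes, 1 h exposure. Filter radiodetection read-out. Single-concentration duplicates (25 uM), then concentration-response for actives; DMSO negative control.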
smiles,measurement,setting,value
CCOC(=O)C(C)(C)Oc1ccc(Cl)cc1,AC50,[1],inconclusive: 0.0847 µM
same,AC50,[2],inconclusive: 25 µM
same,AC50,[3],inconclusive: 25 µM
same,AC50,[4],inconclusive: 25 µM
same,AC50,[5],inconclusive: 0.135 µM
O=C1OC(=O)c2c(Cl)c(Cl)c(Cl)c(Cl)c21,AC50,[6],inconclusive: 46.1 µM
CC(C)NCC(O)c1ccc(O)c(O)c1 (stereo not given),AC50,[2],inconclusive: 0.213 µM
Clc1ccc(Nc2nnc(Cc3ccncc3)c3ccccc23)cc1,AC50,[7],active: 0.417 µM
CN(C)C(=O)NC1(c2ccccc2)CCN(CC[C@@]2(c3ccc(F)c(F)c3)CN(C(=O)c3ccccc3)CCO2)CC1,AC50,[8],inconclusive: 23.5 µM
same,AC50,[1],inconclusive: 0.24 µM
O=C(O)CCN(C1(C(=O)NO)CCCC1)S(=O)(=O)c1ccc(Oc2ccc(F)cc2)cc1,AC50,[9],inconclusive: 25 µM
same,AC50,[10],inconclusive: 2.39 µM
S=c1[nH]c2ccccc2s1,AC50,[11],inconclusive: 10 µM
same,AC50,[4],inconclusive: 25 µM
CCCCOC(=O)CCCCC(=O)OCCCC,AC50,[6],inconclusive: 6.7 µM
same,AC50,[12],inconclusive: 0.157 µM
CC(C)Cc1ccc(C(C)C(=O)O)cc1 (stereo not given),AC50,[7],inconclusive: 0.0024 µM
same,AC50,[13],inconclusive: 10 µM
Cn1c(=O)c2c(ncn2C)n(C)c1=O,outcome,[14],inactive
same,outcome,[15],inactive
same,outcome,[16],inactive
O=C1c2ccccc2C(=O)c2c(O)ccc(O)c21,outcome,[17],inactive
O=C(NS(=O)(=O)/C=C/c1ccccc1)c1ccc(F)cc1Cl,AC50,[18],active: 15 µM
same,AC50,[19],active: 50 µM
CC(O)CO (stereo not given),outcome,[10],inactive
CCCCCCC(C)OC(=O)COc1nc(F)c(Cl)c(N)c1Cl (stereo not given),outcome,[20],inactive
CC(=O)Oc1ccccc1C(=O)O,AC50,[13],inconclusive: 10 µM
CC(=O)OCC(COC(C)=O)OC(C)=O,outcome,[11],inactive
CNS(=O)(=O)c1cc(C(=O)N2CCC(CCN3C4CCC3CC(n3c(C)nc5ccccc53)C4)(c3cccc(F)c3)CC2)c(Cl)cc1F (stereo not given),AC50,[12],inconclusive: 0.162 µM
same,outcome,[18],inactive
same,AC50,[17],inconclusive: 25 µM
same,AC50,[5],inconclusive: 25 µM
CC(=O)Nc1ccc(N=Nc2cc(C)ccc2O)cc1,AC50,[20],active: 2.21 µM
O=c1c(-c2ccc(O)cc2)coc2cc(O)cc(O)c12,AC50,[8],inconclusive: 25 µM
same,outcome,[3],inactive
same,AC50,[14],inconclusive: 6.09 µM
same,outcome,[15],inactive
same,AC50,[16],inconclusive: 2.59 µM
CC(CCO)CC(C)(C)C (stereo not given),outcome,[19],inactive
CCCCC(CC)COC(=O)c1ccc(C(=O)OCC(CC)CCCC)cc1 (stereo not given),AC50,[9],inconclusive: 0.201 µM

# A second format for part of the listing above.
smiles | measurement | setting | value
CCOC(=O)C(C)(C)Oc1ccc(Cl)cc1 | AC50 | [3] | inconclusive: 25 µM
same | AC50 | [5] | inconclusive: 0.135 µM
CN(C)C(=O)NC1(c2ccccc2)CCN(CC[C@@]2(c3ccc(F)c(F)c3)CN(C(=O)c3ccccc3)CCO2)CC1 | AC50 | [8] | inconclusive: 23.5 µM
O=C(O)CCN(C1(C(=O)NO)CCCC1)S(=O)(=O)c1ccc(Oc2ccc(F)cc2)cc1 | AC50 | [10] | inconclusive: 2.39 µM
S=c1[nH]c2ccccc2s1 | AC50 | [11] | inconclusive: 10 µM
Cn1c(=O)c2c(ncn2C)n(C)c1=O | outcome | [15] | inactive
O=C(NS(=O)(=O)/C=C/c1ccccc1)c1ccc(F)cc1Cl | AC50 | [19] | active: 50 µM
CC(O)CO (stereo not given) | outcome | [10] | inactive
CNS(=O)(=O)c1cc(C(=O)N2CCC(CCN3C4CCC3CC(n3c(C)nc5ccccc53)C4)(c3cccc(F)c3)CC2)c(Cl)cc1F (stereo not given) | AC50 | [5] | inconclusive: 25 µM
